From PubChem BioAssay AID504467 (National Center for Advancing Translational Sciences (NCATS), 2011)
In all, about 330,000 compounds went through this assay and about 7,700 (2.3%) were called active. Inconclusive means that the source gave no clear call. Such entries were picked first, then a sample of the others. The call rests on the fitted dose curve; in most records, active means well fitted inhibition curve with a large enough effect; inconclusive means small, poorly fitted or top-dose-only effect, or effect the other way; inactive means flat fitted curve, though single readings scatter. Where the call is inconclusive, the potency comes from a doubtful curve fit.

Test: qHTS screen for small molecules that inhibit ELG1-dependent DNA repair in human embryonic kidney (HEK293T) cells expressing luciferase-tagged ELG1; further: nearly all actives have a fitted effect of over 55% in size
Details: HEK293T ELG1-luciferase reporter, luminescence, 16 h, DNA damage induced by 5-fluorouridine; activity change, negative = inhibition: at 46.1 µM (top of the series)
Procedure, shortened: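 Overnight (16 hr) co-exposure of 2,000 cells/well to 5-fluorouridine and compound at 37 °C preceded detection. Luciferase was quantified via ONE-Glo luminescence; loss of signal denotes inhibition.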
On the % scale 0 is the no-effect control and ±100 the full control effect; potency means the concentration at half of the fitted maximal effect.

Row | SMILES | Potency | activity change, negative = inhibition
1 | COCCn1c(SCCCC(=O)c2ccc(Br)cc2)nnc1-c1ccncc1 | inconclusive: 5.17 µM [inhibitor, full curve] | –
2 | O=C(NC(=S)NCc1cccnc1)c1cc(Br)ccc1Cl | inconclusive: 16.4 µM [inhibitor, partial curve, poor fit] | –
3 | NNc1nc(N)c2c(n1)-c1ccccc1CC21CCCC1 | inconclusive: 23.1 µM [inhibitor, partial curve, poor fit] | –
4 | COc1ccc2cc(C(=O)NCc3ccccc3)c(=Nc3ccc(C(=O)O)cc3)oc2c1 | inconclusive: 23.1 µM [activator, partial curve] | –
5 | CN(CC(=O)Nc1ccc(S(=O)(=O)N2CCCC2)cc1)CC(=O)Nc1ccc(F)c(F)c1F | inconclusive: 29.1 µM [inhibitor, single point] | –
6 | COc1ccc(CC(=S)NCCc2ccccc2)cc1 | – | inactive: 15.4%
7 | COc1ccccc1NC(=O)C1C2C=CC(O2)C1C(=O)O (stereo not drawn) | inconclusive: 23.1 µM [activator, partial curve, poor fit] | –
8 | CCn1c(COc2ccccc2C)nnc1SCC(=O)N1CCN(c2ccccc2)CC1 | inconclusive: 29.1 µM [inhibitor, single point] | –
9 | CCOC(=O)N1CCN(C(=O)c2ccc3c(=O)n(Cc4ccc(Cl)cc4)c(=S)[nH]c3c2)CC1 | active: 8.2 µM | –
10 | CC(NC(=O)C1CCCN1S(=O)(=O)c1ccc2c(c1)n(C)c(=O)c(=O)n2C)c1ccccc1 (stereo not drawn) | inconclusive: 29.1 µM [activator, single point] | –
11 | CCOC(=O)N1CCN(C2=C(NS(=O)(=O)c3ccccc3)C(=O)c3ccccc3C2=O)CC1 | – | inactive: -14.2%
12 | COc1ccc2c(C)c(C(=O)N3CCN(Cc4ccccc4)CC3)oc2c1 | inconclusive: 29.1 µM [inhibitor, single point] | –
13 | Cc1ccc(C2=NN(C(=O)COc3ncnc4ccccc34)C(c3ccco3)C2)cc1 (stereo not drawn) | – | inactive: 6.64%
14 | C=C1C[C@H]2[C@@H]3CCc4cc(OC)ccc4[C@H]3CC[C@]12C | inconclusive: 3.16 µM [activator, single point] | –
15 | CN1CCCN(C(=O)CNC(=O)c2ccc(Cl)cc2Cl)CC1 | – | inactive: 4.63%
16 | Cc1cc(C)cc(NC2=C(N)C(=O)c3ccccc3C2=O)c1 | inconclusive: 8.2 µM [activator, partial curve] | –
17 | CCOc1ccc(NC(=S)Nc2cccc3ccccc23)cc1 | inconclusive: 29.1 µM [activator, partial curve, poor fit] | –
18 | Cc1ccc(NC(=O)c2cc3cccc([N+](=O)[O-])c3[nH]2)cc1 | inconclusive: 2.91 µM [activator, partial curve] | –
19 | COc1ccc2oc(=O)c(-c3nc4ccccc4o3)cc2c1 | inconclusive: 9.2 µM [activator, partial curve] | –
20 | C=CC[N+]1(CC#Cc2ccccc2)CCCC1 | inconclusive: 25.9 µM [inhibitor, partial curve, poor fit] | –
21 | CCOC(=O)N1CCC(Nc2nc3ccccc3n3nnnc23)CC1 | – | inactive: -2.56%
22 | CC(=O)NC1(C(F)(F)F)NC(=O)N(c2ccc(F)cc2)C1=O (stereo not drawn) | – | inactive: 0%
23 | COc1ccccc1C(=O)NC(=S)Nc1ccc(Cc2ccncc2)cc1 | – | inactive: -17.7%

Reformatted: 5 of the compounds above.
Row	SMILES	Potency	activity change, negative = inhibition
5	CN(CC(=O)Nc1ccc(S(=O)(=O)N2CCCC2)cc1)CC(=O)Nc1ccc(F)c(F)c1F	inconclusive: 29.1 µM [inhibitor, single point]	–
6	COc1ccc(CC(=S)NCCc2ccccc2)cc1	–	inactive: 15.4%
7	COc1ccccc1NC(=O)C1C2C=CC(O2)C1C(=O)O (stereo not drawn)	inconclusive: 23.1 µM [activator, partial curve, poor fit]	–
8	CCn1c(COc2ccccc2C)nnc1SCC(=O)N1CCN(c2ccccc2)CC1	inconclusive: 29.1 µM [inhibitor, single point]	–
9	CCOC(=O)N1CCN(C(=O)c2ccc3c(=O)n(Cc4ccc(Cl)cc4)c(=S)[nH]c3c2)CC1	active: 8.2 µM	–

Remaining list, next part.

Row | SMILES | Potency | activity change, negative = inhibition
24 | Cc1ccccc1Nc1nc(N)nc(CSc2ccc(F)cc2)n1 | inconclusive: 16.4 µM [activator, partial curve] | –
25 | CC(C)N1CCNCC1 | – | inactive: 4.55%
26 | O=C(CCCCCCCCN1C(=O)c2ccccc2C1=O)N1CCOCC1 | inconclusive: 18.3 µM [inhibitor, single point] | –
27 | Cc1cc(C2=NNC(=NCCc3ccccc3)SC2)c(C)n1CC1CCCO1 (stereo not drawn) | inconclusive: 29.1 µM [activator, single point] | –
28 | COc1cccc(CN(C)C(=O)/C=C/c2ccc(S(=O)(=O)N3CCCCCC3)cc2)c1 | inconclusive: 23.1 µM [inhibitor, partial curve, poor fit] | –
29 | Cc1cc(C)c(/C=N/NC(=O)c2nnn(-c3nonc3N)c2COc2ccc(F)cc2)c(C)c1 | inconclusive: 32.6 µM [inhibitor, single point] | –
30 | CCCCOc1cccc(-c2nnc(N)s2)c1 | inconclusive: 23.1 µM [activator, partial curve, poor fit] | –
31 | O=C(CSc1ncnc2sccc12)Nc1ccccc1 | inconclusive: 29.1 µM [inhibitor, partial curve, poor fit] | –
32 | Cc1ccn2cc(CCNC(=O)C3CC=CCC3C(=O)O)nc2c1 (stereo not drawn) | inconclusive: 20.6 µM [activator, single point] | –
33 | Cc1nc(SCC(=O)NC2CCS(=O)(=O)C2)c2c3c(sc2n1)CCCC3 (stereo not drawn) | inconclusive: 25.9 µM [inhibitor, single point] | –
34 | CC(C)c1nc2cc(C(=O)NC(C)c3cnn(C)c3)ccc2o1 (stereo not drawn) | inconclusive: 23.1 µM [activator, single point] | –
35 | Cc1sc2nc(CSCC(=O)Nc3c(Cl)cccc3Cl)[nH]c(=O)c2c1C | inconclusive: 32.6 µM [inhibitor, single point] | –
36 | CCN(CC)N=Nc1cccc(NC(C)=O)c1 | inconclusive: 23.1 µM [activator, single point] | –
37 | C/C(=N\Nc1cccc(Cl)c1)c1ccc(-n2ccnc2)cc1 | – | inactive: -28.5%
38 | Cc1c(OCc2ccccc2)cccc1OCc1ccccc1 | inconclusive: 20.6 µM [activator, single point] | –
39 | CC(=O)c1cccc(NC(=O)c2ccc(-c3ccccc3[N+](=O)[O-])o2)c1 | inconclusive: 2.91 µM [activator, partial curve] | –
40 | CCCCN(C(=O)CSc1nnc(-c2ccc(OC)cc2)n1CC)c1c(N)n(Cc2ccccc2)c(=O)[nH]c1=O | inconclusive: 14.6 µM [inhibitor, partial curve, poor fit] | –
41 | Cc1ccc(Cn2c(N/N=C/c3ccncc3)nc3c2c(=O)n(C)c(=O)n3C)cc1 | – | inactive: -8.19%
42 | O=C(COC(=O)c1ccc(S(=O)(=O)N2CCCC2)cc1)NCc1ccc(Cl)cc1 | – | inactive: 12.1%
43 | CC1=C(C(=O)OCc2ccccc2)C(c2ccccc2Cl)NC(=O)N1CCCCCC(=O)O (stereo not drawn) | inconclusive: 2.91 µM [inhibitor, single point] | –
44 | O=C(NNC(=O)c1cc(-c2ccc(Cl)cc2)nc2ccccc12)c1csc(N2CCOCC2)n1 | inconclusive: 23.1 µM [inhibitor, single point] | –
45 | O=S(=O)(NC1=NCCCCC1)c1cc(F)ccc1F | inconclusive: 20.6 µM [activator, partial curve, poor fit] | –
46 | CCc1ccc2c(CC(=O)Nc3cccc(S(=O)(=O)N4CCOCC4)c3)coc2c1 | – | inactive: -20.8%

Row | SMILES | Potency | activity change, negative = inhibition
47 | COc1ccccc1N1CCN(C(=O)C(C)NC(=O)c2cccc([N+](=O)[O-])c2)CC1 (stereo not drawn) | inconclusive: 29.1 µM [inhibitor, partial curve, poor fit] | –
48 | Cc1ccc(C)c(-n2ccnc2SCC(=O)c2c(N)n(C3CC3)c(=O)[nH]c2=O)c1 | inconclusive: 16.4 µM [inhibitor, partial curve] | –
49 | CC1CC(C)CN(CCOc2ccc(Cl)cc2Cl)C1 (stereo not drawn) | inconclusive: 7.31 µM [inhibitor, partial curve, poor fit] | –
50 | COc1ccc(OCc2cc(C(=O)N3CCCCCCC3)no2)c(Cl)c1 | inconclusive: 18.3 µM [activator, partial curve] | –
51 | Cc1ccc(Nc2nc(-c3sc(NC(=O)c4cccc(Cl)c4)nc3C)cs2)cc1 | – | inactive: -3.18%
52 | COc1ccccc1OCC(=O)N1CCCC(Nc2ccc(C)c(C)c2)C1 (stereo not drawn) | – | inactive: -4.74%
53 | COC(=O)c1cccc(NC(=O)CN2C(=O)C3CCCCC3C2=O)c1 (stereo not drawn) | – | inactive: 11%
54 | COc1ccc(OC)c2sc(N(CCCN(C)C)C(=O)c3ccc(S(=O)(=O)N4CCc5ccccc5C4)cc3)nc12 | inconclusive: 16.4 µM [inhibitor, partial curve, poor fit] | –
55 | O=C(CS(=O)(=O)c1ccccc1)c1ccc2c(c1)OCCO2 | inconclusive: 20.6 µM [activator, partial curve] | –
56 | Cc1cn([C@H]2C[C@H](N=[N+]=[N-])[C@@H](CO)O2)c(=O)[nH]c1=O | – | inactive: 8.69%
57 | CCCCCCCCS(=O)c1sc2nc(C)cc(C)c2c1N (stereo not drawn) | inconclusive: 14.6 µM [inhibitor, partial curve] | –
58 | N#Cc1c(SCC(=O)O)nc(N2CCOCC2)c2c1CCCC2 | inconclusive: 3.66 µM [inhibitor, partial curve, poor fit] | –
59 | COc1ccc([C@@H]2Sc3ccccc3N(CCN(C)C)C(=O)[C@@H]2OC(C)=O)cc1 | – | inactive: 0.31%
60 | CCOC(=O)c1ccc2nc3c(cc2c1)CCS3 | inconclusive: 18.4 µM [activator, partial curve] | –
61 | CC(C)(C)NC(=O)CCN(/N=C/c1ccccc1O)C1=NS(=O)(=O)c2ccccc21 | – | inactive: 13.2%
62 | N#Cc1c(-c2ccc(Cl)cc2)ccn2nc(C3CCCCC3)nc12 | inconclusive: 5.17 µM [activator, full curve] | –
63 | COc1cccc(-c2nnc3n2N=C(c2cc(OC)ccc2OC)CS3)c1 | active: 18.4 µM | –
64 | Cc1c(Cl)cccc1NC(=O)C1CCN(c2cnccn2)CC1 | – | inactive: 12.9%
65 | COc1ccc(C(=O)COc2ccc(C)cc2NC(C)=O)cc1 | inconclusive: 2.59 µM [activator, full curve] | –
66 | O=C(C1=C(Nc2ccccc2)c2ccccc2S(=O)(=O)N1)c1ccccc1 | active: 16.4 µM | –
67 | S=c1nc[nH]c2c1[nH]c1ccc(Cl)cc12 | inconclusive: 23.1 µM [activator, single point] | –
68 | COc1cccc(NC(=O)Cn2c(=O)n(C)c(=O)c3sc4c(c32)COC(C)(C)C4)c1 | – | inactive: -23.3%
